{"source": "patent US10487093B2", "about": "“Heterocyclic compounds, in particular 2-oxo-4,4,5,5,6,6,7,7-octahydrobenzoxazole derivatives, and their use as antibacterial compounds” (priority 2016, dated 2019)", "note": "Some results were stated once for a whole list of compounds, not compound by compound."}
{"tested_on": "E. coli MG1655 fluoroquinolone-mutant strains", "type": "cell-based, Escherichia coli", "settings": "MG1655 S83L and MG1655 D87G versus parent MG1655; no significant loss", "units": {"loss of activity (fold change) against the E. coli MG1655 fluoroquinolone-mutant strains": "fold"}}
{"smiles": "O=C1COc2ccc(N3C(=O)O[C@H]4C[C@@H](NCCCn5c(=O)ccc6ncc(OC(F)F)cc65)CC[C@@H]43)nc2N1", "note": "[Compound 93, 1-(3-{[(3aS,6S,7aS)-2-oxo-3-{3-oxo-2H,3H,4H-pyrido[3,2-b][1,4]oxazin-6-yl}-octahydro-1,3-benzoxazol-6-yl]amino}propyl)-7-(difluoromethoxy)-1,2-dihydro-1,5-naphthyridin-2-one]", "loss of activity (fold change) against the E. coli MG1655 fluoroquinolone-mutant strains": "≤ 2"}
{"smiles": "O=C1COc2ccc(N3C(=O)O[C@H]4C[C@@H](NCCCn5c(=O)cnc6ccc(F)cc65)CC[C@@H]43)nc2N1", "note": "[Compound 92, 1-(3-{[(3aS,6S,7aS)-2-oxo-3-{3-oxo-2H,3H,4H-pyrido[3,2-b][1,4]oxazin-6-yl}-octahydro-1,3-benzoxazol-6-yl]amino}propyl)-7-fluoro-1,2-dihydroquinoxalin-2-one]", "loss of activity (fold change) against the E. coli MG1655 fluoroquinolone-mutant strains": "≤ 2"}
{"smiles": "COc1ccc2ccc(=O)n(CCN[C@H]3CC[C@H]4[C@H](C3)OC(=O)N4c3ccc4c(n3)NC(=O)CS4)c2n1", "note": "[Compound 61, 1-(2-{[(3aS,6S,7aS)-2-oxo-3-{3-oxo-2H,3H,4H-pyrido[3,2-b][1,4]thiazin-6-yl}-octahydro-1,3-benzoxazol-6-yl]amino}ethyl)-7-methoxy-1,2-dihydro-1,8-naphthyridin-2-one]", "loss of activity (fold change) against the E. coli MG1655 fluoroquinolone-mutant strains": "≤ 2"}
{"smiles": "N#Cc1cnc2ccc(=O)n(CCN[C@H]3CC[C@H]4[C@@H](C3)OC(=O)N4c3ccc4c(n3)NC(=O)CO4)c2c1", "note": "[Compound 46, 5-(2-{[(3aS,6S,7aR)-2-oxo-3-{3-oxo-2H,3H,4H-pyrido[3,2-b][1,4]oxazin-6-yl}-octahydro-1,3-benzoxazol-6-yl]amino}ethyl)-6-oxo-5,6-dihydro-1,5-naphthyridine-3-carbonitrile]", "loss of activity (fold change) against the E. coli MG1655 fluoroquinolone-mutant strains": "≤ 2"}
{"smiles": "O=C1COc2cnc(N3C(=O)O[C@@H]4C[C@@H](NCCn5c(=O)cnc6cc(F)c(F)cc65)CC[C@@H]43)nc2N1", "note": "[Compound 65, 1-(2-{[(3aS,6S,7aR)-2-oxo-3-{7-oxo-6H,7H,8H-pyrimido[5,4-b][1,4]oxazin-2-yl}-octahydro-1,3-benzoxazol-6-yl]amino}ethyl)-6,7-difluoro-1,2-dihydroquinoxalin-2-one]", "loss of activity (fold change) against the E. coli MG1655 fluoroquinolone-mutant strains": "≤ 2"}
{"smiles": "O=C1COc2ccc(N3C(=O)O[C@H]4C[C@@H](NCCn5c(=O)ccc6nccnc65)CC[C@@H]43)nc2N1", "note": "[Compound 100, (3aS,6S,7aS)-3-{3-oxo-2H,3H,4H-pyrido[3,2-b][1,4]oxazin-6-yl}-6-[(2-{6-oxo-5H,6H-pyrido[2,3-b]pyrazin-5-yl}ethyl)amino]-octahydro-1,3-benzoxazol-2-one]", "loss of activity (fold change) against the E. coli MG1655 fluoroquinolone-mutant strains": "≤ 2"}
{"smiles": "COc1ccc2ccc(=O)n(CCN[C@H]3CC[C@H]4[C@H](C3)OC(=O)N4c3ccc4c(n3)NC(=O)CO4)c2c1", "note": "[Compound 102, 1-(2-{[(3aS,6S,7aS)-2-oxo-3-{3-oxo-2H,3H,4H-pyrido[3,2-b][1,4]oxazin-6-yl}-octahydro-1,3-benzoxazol-6-yl]amino}ethyl)-7-methoxy-1,2-dihydroquinolin-2-one]", "loss of activity (fold change) against the E. coli MG1655 fluoroquinolone-mutant strains": "≤ 2"}
{"smiles": "COc1cnc2ccc(=O)n(CCCN[C@H]3CC[C@H]4[C@H](C3)OC(=O)N4c3ccc4c(n3)NC(=O)CO4)c2c1", "note": "[Compound 99, 1-(3-{[(3aS,6S,7aS)-2-oxo-3-{3-oxo-2H,3H,4H-pyrido[3,2-b][1,4]oxazin-6-yl}-octahydro-1,3-benzoxazol-6-yl]amino}propyl)-7-methoxy-1,2-dihydro-1,5-naphthyridin-2-one]", "loss of activity (fold change) against the E. coli MG1655 fluoroquinolone-mutant strains": "≤ 2"}
{"smiles": "COc1cccc(-c2cccc(CN[C@H]3CC[C@H]4[C@H](C3)OC(=O)N4c3ccc4c(n3)NC(=O)CO4)c2)n1", "note": "[Compound 73, (3aS,6S,7aS)-6-({[3-(6-methoxypyridin-2-yl)phenyl]methyl}amino)-3-{3-oxo-2H,3H,4H-pyrido[3,2-b][1,4]oxazin-6-yl}-octahydro-1,3-benzoxazol-2-one]", "loss of activity (fold change) against the E. coli MG1655 fluoroquinolone-mutant strains": "≤ 2"}
{"smiles": "O=C1COc2ccc(N3C(=O)O[C@H]4C[C@@H](NCCn5c(=O)cnc6cc(F)c(F)cc65)CC[C@@H]43)nc2N1", "note": "[Compound 34, 1-(2-{[(3aS,6S,7aS)-2-oxo-3-{3-oxo-2H,3H,4H-pyrido[3,2-b][1,4]oxazin-6-yl}-octahydro-1,3-benzoxazol-6-yl]amino}ethyl)-6,7-difluoro-1,2-dihydroquinoxalin-2-one]", "loss of activity (fold change) against the E. coli MG1655 fluoroquinolone-mutant strains": "≤ 2"}
{"smiles": "COc1cc2c(ccc(=O)n2CCN[C@H]2CC[C@H]3[C@H](C2)OC(=O)N3c2ccc3c(n2)NC(=O)CO3)cn1", "note": "[Compound 62, 1-(2-{[(3aS,6S,7aS)-2-oxo-3-{3-oxo-2H,3H,4H-pyrido[3,2-b][1,4]oxazin-6-yl}-octahydro-1,3-benzoxazol-6-yl]amino}ethyl)-7-methoxy-1,2-dihydro-1,6-naphthyridin-2-one]", "loss of activity (fold change) against the E. coli MG1655 fluoroquinolone-mutant strains": "≤ 2"}
{"smiles": "COC(=O)c1ccc2ccc(=O)n(CCN[C@@H]3CC[C@@H]4[C@@H](C3)OC(=O)N4c3ccc4c(n3)NC(=O)CO4)c2c1", "note": "[Compound 36, methyl 1-(2-{[(3aR,6R,7aR)-2-oxo-3-{3-oxo-2H,3H,4H-pyrido[3,2-b][1,4]oxazin-6-yl}-octahydro-1,3-benzoxazol-6-yl]amino}ethyl)-2-oxo-1,2-dihydroquinoline-7-carboxylate]", "loss of activity (fold change) against the E. coli MG1655 fluoroquinolone-mutant strains": "≤ 2"}
{"smiles": "COc1cnc2ccc(=O)n(CCN[C@H]3CC[C@H]4[C@@H](C3)OC(=O)N4c3ccc4c(n3)NC(=O)CO4)c2c1", "note": "[Compound 30, 1-(2-{[(3aS,6S,7aR)-2-oxo-3-{3-oxo-2H,3H,4H-pyrido[3,2-b][1,4]oxazin-6-yl}-octahydro-1,3-benzoxazol-6-yl]amino}ethyl)-7-methoxy-1,2-dihydro-1,5-naphthyridin-2-one]", "loss of activity (fold change) against the E. coli MG1655 fluoroquinolone-mutant strains": "≤ 2"}
{"smiles": "COc1cnc2ccc(=O)n(CCN[C@@H]3CC[C@@H]4[C@@H](C3)OC(=O)N4c3ncc4c(n3)NC(=O)CO4)c2c1", "note": "[Compound 41, 1-(2-{[(3aR,6R,7aR)-2-oxo-3-{7-oxo-6H,7H,8H-pyrimido[5,4-b][1,4]oxazin-2-yl}-octahydro-1,3-benzoxazol-6-yl]amino}ethyl)-7-methoxy-1,2-dihydro-1,5-naphthyridin-2-one]", "loss of activity (fold change) against the E. coli MG1655 fluoroquinolone-mutant strains": "≤ 2"}
{"smiles": "O=C1COc2ccc(N3C(=O)O[C@H]4C[C@@H](NCCn5c(=O)ccc6ccc(OC7CNC7)cc65)CC[C@@H]43)nc2N1", "note": "[Compound 103, 1-(2-{[(3aS,6S,7aS)-2-oxo-3-{3-oxo-2H,3H,4H-pyrido[3,2-b][1,4]oxazin-6-yl}-octahydro-1,3-benzoxazol-6-yl]amino}ethyl)-7-(azetidin-3-yloxy)-1,2-dihydroquinolin-2-one]", "loss of activity (fold change) against the E. coli MG1655 fluoroquinolone-mutant strains": "≤ 2"}
{"smiles": "O=C1COc2ccc(N3C(=O)O[C@H]4C[C@@H](NCCn5c(=O)cnc6ccc(F)cc65)CC[C@@H]43)nc2N1", "note": "[Compound 84, 1-(2-{[(3aS,6S,7aS)-2-oxo-3-{3-oxo-2H,3H,4H-pyrido[3,2-b][1,4]oxazin-6-yl}-octahydro-1,3-benzoxazol-6-yl]amino}ethyl)-7-fluoro-1,2-dihydroquinoxalin-2-one]", "loss of activity (fold change) against the E. coli MG1655 fluoroquinolone-mutant strains": "≤ 2"}
{"smiles": "N#Cc1ccc2ncc(=O)n(CCN[C@H]3CC[C@H]4[C@H](C3)OC(=O)N4c3ccc4c(n3)NC(=O)CO4)c2c1", "note": "[Compound 64, 4-(2-{[(3aS,6S,7aS)-2-oxo-3-{3-oxo-2H,3H,4H-pyrido[3,2-b][1,4]oxazin-6-yl}-octahydro-1,3-benzoxazol-6-yl]amino}ethyl)-3-oxo-3,4-dihydroquinoxaline-6-carbonitrile]", "loss of activity (fold change) against the E. coli MG1655 fluoroquinolone-mutant strains": "≤ 2"}
{"smiles": "N#Cc1ccc2ncc(=O)n(CCN[C@@H]3CC[C@@H]4[C@@H](C3)OC(=O)N4c3ccc4c(n3)NC(=O)CO4)c2c1", "note": "[Compound 68, 4-(2-{[(3aR,6R,7aR)-2-oxo-3-{3-oxo-2H,3H,4H-pyrido[3,2-b][1,4]oxazin-6-yl}-octahydro-1,3-benzoxazol-6-yl]amino}ethyl)-3-oxo-3,4-dihydroquinoxaline-6-carbonitrile]", "loss of activity (fold change) against the E. coli MG1655 fluoroquinolone-mutant strains": "≤ 2"}
{"smiles": "CSc1ncc2ccc(=O)n(CCN[C@H]3CC[C@H]4[C@@H](C3)OC(=O)N4c3ccc4c(n3)NC(=O)CO4)c2n1", "note": "[Compound 53, (3aS,6S,7aR)-6-({2-[2-(methylsulfanyl)-7-oxo-7H,8H-pyrido[2,3-d]pyrimidin-8-yl]ethyl}amino)-3-{3-oxo-2H,3H,4H-pyrido[3,2-b][1,4]oxazin-6-yl}-octahydro-1,3-benzoxazol-2-one]", "loss of activity (fold change) against the E. coli MG1655 fluoroquinolone-mutant strains": "≤ 2"}
{"smiles": "COc1cnc2ccc(=O)n(CCN[C@H]3CC[C@H]4[C@H](C3)OC(=O)N4c3ccc4c(n3)NC(=O)CS4)c2c1", "note": "[Compound 81, 1-(2-{[(3aS,6S,7aS)-2-oxo-3-{3-oxo-2H,3H,4H-pyrido[3,2-b][1,4]thiazin-6-yl}-octahydro-1,3-benzoxazol-6-yl]amino}ethyl)-7-methoxy-1,2-dihydro-1,5-naphthyridin-2-one]", "loss of activity (fold change) against the E. coli MG1655 fluoroquinolone-mutant strains": "≤ 2"}
{"smiles": "COc1ccc2ncc(=O)n(CCN[C@H]3CC[C@H]4[C@@H](C3)OC(=O)N4c3ccc4c(n3)NC(=O)CO4)c2c1", "note": "[Compound 24, 1-(2-{[(3aS,6S,7aR)-2-oxo-3-{3-oxo-2H,3H,4H-pyrido[3,2-b][1,4]oxazin-6-yl}-octahydro-1,3-benzoxazol-6-yl]amino}ethyl)-7-methoxy-1,2-dihydroquinoxalin-2-one]", "loss of activity (fold change) against the E. coli MG1655 fluoroquinolone-mutant strains": "≤ 2"}
{"smiles": "N#Cc1cccc(-c2cccc(CN[C@@H]3CC[C@@H]4[C@@H](C3)OC(=O)N4c3ccc4c(n3)NC(=O)CO4)c2O)n1", "note": "[Compound 40, 6-[3-({[(3aR,6R,7aR)-2-oxo-3-{3-oxo-2H,3H,4H-pyrido[3,2-b][1,4]oxazin-6-yl}-octahydro-1,3-benzoxazol-6-yl]amino}methyl)-2-hydroxyphenyl]pyridine-2-carbonitrile]", "loss of activity (fold change) against the E. coli MG1655 fluoroquinolone-mutant strains": "≤ 2"}
